We go through one substance from publication PMC7804408.

Amino acid sequences for entries named in this document (tags omitted). Residues count along the entry.
UniProt P0A850: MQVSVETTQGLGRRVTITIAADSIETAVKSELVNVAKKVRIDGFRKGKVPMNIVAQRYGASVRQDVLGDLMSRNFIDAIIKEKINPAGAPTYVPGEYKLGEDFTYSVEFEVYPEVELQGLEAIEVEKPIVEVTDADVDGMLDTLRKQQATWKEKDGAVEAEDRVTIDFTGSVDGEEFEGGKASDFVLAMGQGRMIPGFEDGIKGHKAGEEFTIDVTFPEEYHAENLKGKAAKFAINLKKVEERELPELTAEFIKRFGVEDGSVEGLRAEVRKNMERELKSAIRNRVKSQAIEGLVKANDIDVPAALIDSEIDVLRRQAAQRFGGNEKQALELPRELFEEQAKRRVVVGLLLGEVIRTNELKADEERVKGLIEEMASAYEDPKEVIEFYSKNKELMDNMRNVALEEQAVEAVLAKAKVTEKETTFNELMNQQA
UniProt P0A6G7, residues 15-207: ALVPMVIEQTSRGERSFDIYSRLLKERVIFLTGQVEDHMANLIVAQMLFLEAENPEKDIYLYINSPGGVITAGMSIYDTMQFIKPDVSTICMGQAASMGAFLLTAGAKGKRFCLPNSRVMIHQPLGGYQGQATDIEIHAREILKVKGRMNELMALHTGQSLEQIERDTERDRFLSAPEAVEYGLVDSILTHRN

For this experiment, the target named is trigger factor (TF) (E. coli) (UniProt P0A850). Put plainly: SPR; TF immobilised on a CM5 chip by amine coupling, analytes injected at 20 μL/min for 90 s; Biacore X, 22 °C; 10 mM HEPES pH 7.5, 150 mM NaCl, 3 mM EDTA, 0.005% P20; steady-state response against concentration, one-site Langmuir model; apparent Kd for ClpX; both purified.

These are yes or no findings as the source states them, for the method shown.

Consider “ClpP (from UniProt P0A6G7 15-207) (enzyme)”, for which the binding result is given as “no binding”.
